In patent US20250163138A1 (Alexion, published 2025):
No constants are given. Whether binding was seen depends on the method and setting. Some results given as binding are weak or reduced against the parent protein; the word gives no strength.

Protein sequences, listed by entry. Tags and fused reporters are not part of them. Residues count along the entry.
UniProt P01031, residues 19-1676: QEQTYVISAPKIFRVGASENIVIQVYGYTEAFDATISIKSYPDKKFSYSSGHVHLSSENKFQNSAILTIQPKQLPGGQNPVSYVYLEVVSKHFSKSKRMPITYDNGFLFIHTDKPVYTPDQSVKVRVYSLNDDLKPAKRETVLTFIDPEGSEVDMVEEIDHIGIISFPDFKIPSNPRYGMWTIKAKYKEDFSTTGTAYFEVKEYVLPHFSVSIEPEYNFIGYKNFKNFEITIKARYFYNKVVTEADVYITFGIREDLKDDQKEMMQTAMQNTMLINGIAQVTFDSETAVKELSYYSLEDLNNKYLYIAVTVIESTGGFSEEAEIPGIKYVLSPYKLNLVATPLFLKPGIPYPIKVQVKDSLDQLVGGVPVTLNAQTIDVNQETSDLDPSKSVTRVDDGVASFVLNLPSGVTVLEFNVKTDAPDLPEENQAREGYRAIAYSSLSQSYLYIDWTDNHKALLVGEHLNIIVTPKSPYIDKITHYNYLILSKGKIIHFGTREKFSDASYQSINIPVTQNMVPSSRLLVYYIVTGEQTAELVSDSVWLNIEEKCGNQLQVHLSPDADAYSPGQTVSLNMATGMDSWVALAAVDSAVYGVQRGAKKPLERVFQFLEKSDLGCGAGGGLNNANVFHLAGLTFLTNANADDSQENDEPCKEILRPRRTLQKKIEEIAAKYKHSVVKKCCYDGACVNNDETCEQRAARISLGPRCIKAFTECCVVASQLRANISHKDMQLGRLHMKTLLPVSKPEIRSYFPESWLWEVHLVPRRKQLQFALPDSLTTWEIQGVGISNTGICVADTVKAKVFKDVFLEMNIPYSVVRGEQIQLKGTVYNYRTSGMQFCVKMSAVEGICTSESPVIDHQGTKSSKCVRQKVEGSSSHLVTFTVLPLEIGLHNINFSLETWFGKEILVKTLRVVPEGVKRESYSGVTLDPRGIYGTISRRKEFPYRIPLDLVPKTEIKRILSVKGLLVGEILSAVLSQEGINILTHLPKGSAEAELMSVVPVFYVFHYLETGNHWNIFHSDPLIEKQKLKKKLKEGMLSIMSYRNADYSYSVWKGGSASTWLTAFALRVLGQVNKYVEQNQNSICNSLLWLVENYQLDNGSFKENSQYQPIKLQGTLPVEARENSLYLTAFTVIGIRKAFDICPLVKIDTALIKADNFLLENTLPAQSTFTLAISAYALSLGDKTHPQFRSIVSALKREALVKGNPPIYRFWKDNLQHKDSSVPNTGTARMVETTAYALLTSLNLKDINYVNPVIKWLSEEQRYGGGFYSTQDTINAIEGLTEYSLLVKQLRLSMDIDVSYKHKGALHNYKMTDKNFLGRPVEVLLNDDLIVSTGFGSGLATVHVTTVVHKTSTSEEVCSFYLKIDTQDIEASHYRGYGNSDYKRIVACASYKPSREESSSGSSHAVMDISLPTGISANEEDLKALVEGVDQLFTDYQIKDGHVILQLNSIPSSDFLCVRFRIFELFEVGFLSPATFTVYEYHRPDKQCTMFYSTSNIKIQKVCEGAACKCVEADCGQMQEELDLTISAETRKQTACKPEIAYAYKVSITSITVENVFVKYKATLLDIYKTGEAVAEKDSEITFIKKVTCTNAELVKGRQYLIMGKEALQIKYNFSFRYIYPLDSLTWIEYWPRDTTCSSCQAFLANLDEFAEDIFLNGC

Assays:
[1] = target: T1, human complement protein C5 (human, UniProt P01031 19-1676); experiment: BLI, VHH-His on anti-penta-His tips, 50 nM C5
T1 construct: Native C5 is a two-chain protein made from one precursor; also called hC5; human C5

[2] = target: cynomolgus monkey (cyno) complement protein C5 (cynomolgus monkey); experiment: BLI, VHH-His on anti-penta-His tips, 50 nM C5

Row | Binder | binding [1] | binding [2]
1 | LCP0105 (VHH, not shown: small tags and cut ends) VHH: EVQLVESGGGLVQAGGSLRLSCTASGRTISTTVMAWFRQAPGKEREFVAAVHWGDESTVYADSVKGRFTISRDNAKNTVYLQMNYLKPEDTSVYYCAARPPTYVGSSRSSRAYDYWGQGTQVTVSS | binds | binds
2 | LCP0125 (VHH, not shown: small tags and cut ends) VHH: EVQLVESGGGLVQAGGSLRLSCTASGRTISTTVMGWFRQAPGKEREFVAAVHWGDEGTVYADSVKGRFTISRDNAKNTVYLQMNALKPEDTSVYYCAAKPPTYVGTSRSSRAYVYWGQGTQVTVSS | binds | binds
3 | LCP0091 (VHH, not shown: small tags and cut ends) VHH: EVQLVESGGGLVQAGGSLTLSCAASGRTDSRYAMGWFRQAPGKERELMAAISWSGRPTYYADSVKGRFTISRDNAKNTVSLQMNSLKPEDTAVYYCAYKRLPAWYTGSAYYSQESEYDYWGQGTQVTVSS | binds | binds
4 | LCP0097 (VHH, not shown: small tags and cut ends) VHH: EVQLVESGGGLVQPGGSLRLSCAASESISSDSPMAWYRQAPGKQREMVARILPIGPPDYADAVKDRFSISRENAKNTVYLQMNSLKPEDTAVYYCNLLHLPSGLNYWGQGTQVTVSS | binds | binds
5 | LCP0102 (VHH, not shown: small tags and cut ends) VHH: EVQLVESGGGLVQAGGSLRLSCAASGIIPNIYAMGWYRQAPGKQRELVASIENGGSTNYADSVKGRFTISRDNARNTVFLQMHSLKSEDTAVYYCYAFRPGVPTDWGQGTQVTVSS | binds | binds
6 | LCP0085 (VHH, not shown: small tags and cut ends) VHH: EVQLVESGGGLVQAGGSLRLSCAASSIIPNIYAMGWYRQAPGKQRELVASIENGLPANYADSVKGRFTISRDNAKNTVFLQMHSLKSEDTAVYYCYAFRPGVPTTWGQGTQVTVSS | binds | binds
7 | LCP0092 (VHH, not shown: small tags and cut ends) VHH: EVQLVESGGGLVQPGGSLRLSCTSRIGTISNIDLMNWYRQAPGKQREFVASLQSTGTTDYADSVKGRFTISRDNAKNTLFLQMNSLNPEDTAVYYCHALIPRSPYNVWGQGTQVTVSS | binds | binds
8 | LCP0083 (VHH, not shown: small tags and cut ends) VHH: EVQLVESGGGLVQPGGSLRLSCTSRIGTISNIDLMNWYRQAPGKQREFVASLQSNGATNYADSVKGRFTISRDNAKNTLFLQMNSLNPEDTAVYFCHALLPRSPYNSWGQGTQVTVSS | binds | binds
9 | LCP0101 (VHH, not shown: small tags and cut ends) VHH: EVQLVESGGGLVQPGGSLRLSCTSRIGTISNIDLMNWYRQAPGKQREFVASLQSTGTTDYADSVKGRFTISRDNAKNTLFLQMNSLNPEDTAVYYCHALLPRSPYNAWGQGTQVTVSS | binds | binds
10 | LCP0114 (VHH, not shown: small tags and cut ends) VHH: EVQLVESGGGLVQPGGSLRLSCTSRIGTISNIDLMNWYRQAPGKQREFVASLQSTGTTDYADSVRGRFTISRDNAKNTLFLQMNSLNPEDTAVYYCHALLPRSPYNVWGQGTQVTVSS | binds | binds
11 | LCP0106 (VHH, not shown: small tags and cut ends) VHH: EVQLVESGGGLVQAGGSLRLSCVVSGSILDINVMAWYRQAPGKQREFVARITSGGDIDYADPVKGRFTISTNGAKNTVYLQMNSLKPEDTAAYYCNVLLSRSSAGRYTHWGQGTQVTVSS | binds | binds
12 | LCP0103 (VHH, not shown: small tags and cut ends) VHH: EVQLVESGGGLVQAGGSLTLSCVASGRTFSNYRMGWFRQAPGAEREFVGTIYWSTGRSYYGDSVKGRFIISGDNAKNTIHLQMNSLKPEDTGVYYCASGPENSAFDSWGQGTQVTVSS | binds | binds
13 | LCP0082 (VHH, not shown: small tags and cut ends) VHH: EVQLVESGGGLVQAGGSLRLSCAASGTSVVINSMGWYRQAPGKQRELVATIDLSGTTNYADSAQGRFTISRDNAENLNLVYLQMNNLNPDDTAVYYCNALLSRAVSGSYVYWGQGTQVTVSS | binds | binds
14 | LCP0126 (VHH, not shown: small tags and cut ends) VHH: EVQLVESGGGLVQAGDSLTLSCAASGSGFSINVMAWYRQAPGKQRDLVASMTIGGRTNYKDSLKGRFTISRDNTKNTAYLQMNSLKPEDTAVYYCYALLDRGIGGNYVYWGQGTQVTVSS | binds | binds
15 | LCP0122 (VHH, not shown: small tags and cut ends) VHH: EVQLVESGGGLVQAGGSLRLSCAAPETGATINVMAWYRQAPGKQRELVARVAIDNNTDYADHAKGRFTISRDNTKNTVYLQMNNLKPDDTAVYYCNVLLSRQISGSYGHWGQGTQVTVSS | binds | binds

Next, values leading:

Row | binding [1] | binding [2] | Binder
16 | binds | binds | LCP0142 (VHH, not shown: small tags and cut ends) VHH: EVQLVESGGGLVQVGGSLRLSCAASGSIVDIKVMGWYRQAPGNERELVALINDADDSEYSPSMRGRFTISRDNSKNTVYLQMNSLKPEDTAAYYCAADRDSSWFKSPYIPGSWGQGTQVTVSS
17 | binds | binds | LCP0134 (VHH, not shown: small tags and cut ends) VHH: EVQLVESGGGLVQSGGSLTLSCVLSGSIFSSNTMGWHRQAPGKQREWVAITTSGGTTKYADSVKGRFTISRDNAKNTVYLRMNNLKPEDTGVYFCYASLAGIWGQGTQVTVSS
18 | binds | binds | LCP0129 (VHH, not shown: small tags and cut ends) VHH: EVQLVESGGGLVQAGGSLRLSCAASVASETIVSINDMAWYRQAPGKQRELVASITIHNNRDYADSAKGRFTISRDDTKNTVYLQMTHLKPDDTAVYYCTVLLSRALSGSYRFWGQGTQVTVSS
19 | binds | binds | LCP0135 (VHH, not shown: small tags and cut ends) VHH: EVQLVESGGGLVQAGGSLRLSCAAPETEATYNVMGWYRRAPGKQRELVATMTIDYNTNYADSAKGRFTISRDNTKNTVYLQMNNLRPDDTAVYYCRVDLSRQISGSYNYWGQGTQVTVSS
20 | binds | binds | LCP0150 (VHH, not shown: small tags and cut ends) VHH: EVQLVESGGGLVQAGGSLRLSCVASGSGFGILDMGWYRQAPGSRRELVGYVTRDGTTNYGNSVKGRSIISEDITKNTVILQMNSLKPEDTAVYFCTAGLTNQPRAWGQGTQVTVSS
21 | binds | binds | LCP0147 (VHH, not shown: small tags and cut ends) VHH: EVQLVESGGGLVQAGGSLRLSCAASGRTFSSSNMGWFRQAPGEEREFVTAIDWSGGRTYYADSVKGRFTISRDNAKNTVYLQMDSLKPEDTAVYYCAAQGSGLDWGYPWTYDYWGQGTQVTVSS
22 | binds | binds | LCP0151 (VHH, not shown: small tags and cut ends) VHH: EVQLVESGGGLVQPGGSLRLSCAASGSVSSINVMGWYRQTPGKQRELVAAINRGGSTNVADSVKGRFTISRDNAKNTVYLQMNSLKPEDTAVYYCNAEPYGLDWRYDYWGQGTQVTVSS
23 | binds | binds | LCP0127 (VHH, not shown: small tags and cut ends) VHH: EVQLVESGGGLVQAGGSLRLSCAASGLTFSDYYMGWFRQAPGKERDFLARIGKSGIGKSYADSVRGRFTISRDNAKNTVYLQMNNLKLEDTAVYYCAADRDIAYDARLTAEYDYWGQGTQVTVSS
24 | binds | binds | LCP0137 (VHH, not shown: small tags and cut ends) VHH: EVQLVESGGGLVQPGGSLRLSCRASGFTYSTAAMGWVRQAPGKGLEWVSSISSLGSDRKSADSVKGRFTISRDNAKNTLYLQMNSLKPEDTAVYYCARFISNRWSRDVHAPSDFGSRGQGTQVTVSS
25 | binds | binds | LCP0141 (VHH, not shown: small tags and cut ends) VHH: EVQLVESGGGLVQAGGSLRLSCIASVTIADINVMGWYRQAPGKQREFVASIPTTGDKNYAESAKGRFTISRDNSQNTVAMQMNNLKPDDTAVYYCYVLLSRAVSGSYGHWGQGTQVTVSS
26 | binds | binds | LCP0133 (VHH, not shown: small tags and cut ends) VHH: EVQLVESGGGSVQAGGSLRLSCAFSGGRFSDYGMAWFRQGPGKEREFVSRISGNGRGTQYTDSVSGRFIISRDNDKNTVYLQMNDLKVEDTAIYYCARGSGPSSFNEGSVYDYWGQGTQVTVSS
27 | binds | binds | LCP0320 (VHH, not shown: small tags and cut ends) VHH: EVQLVESGGGLVQAGGSLRLSCAAPETIFTINSMGWYRQAPGKQRELVAFINLDGNTNYADSAKGRFTISRDNAENTVYLQMDNLKPDDTAVYYCNVLLSRAISGSYVHWGQGTQVTVSS
28 | binds | binds | LCP0153 (VHH, not shown: small tags and cut ends) VHH: EVQLVESGGGLVQAGGSLTLSCVASGRTFSNYRMGWFRQAPGKEREFVGTIYWSTGRSYYGDSVKGRFIISGDNAKNTIHLQMNSLKPGDTGVYYCASGPEMSAFDSWGQGTQVTVSS
29 | binds | binds | LCP0144 (VHH, not shown: small tags and cut ends) VHH: EVQLVESGGGLVQAGGSLRLSCAASGIDGDINVMAWYRQAPGKQRELVASITIGGNTNYADSVKGRFTIARDNAKNRMSLEMNSLKSEDTAVYYCNTLLSRVHDGQYVFWGQGTQVTVSS
30 | binds | binds | LCP0319 (VHH, not shown: small tags and cut ends) VHH: EVQLVESGGGLVQAGGSLRLSCAAAGRSLSDYYIIWFRQPPGKEYEFVSSIRWNTGSTTYGDSVKGRFTISRDNAKSTVYLQMNSLKPEDTALYWCAAGLHLTPTSRTYNYRGQGTQVTVSS
